38 compounds from PubChem BioAssay AID493014 (National Center for Advancing Translational Sciences (NCATS), 2011) can be followed below.

The list shows a part of the results. These are further read-outs of the screen, such as a control signal, another cell line or another target. No call is given for them. Compounds called inactive in the main read-out are mostly missing here. The note in brackets gives the kind of curve behind each potency; many fits are weak.

The nature of this assay: qHTS Assay to Find Inhibitors of Chronic Active B-Cell Receptor Signaling. Conditions: ABC-DLBCL IkBa-CBG/CBR reporter, luminescence ratio (green luciferase fused to IkBa over red control in TMD8 lymphoma cells), 4 h. The method in brief:
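TMD8 human ABC-DLBCL cells with doxycycline-inducible IκBα–green luciferase fusion and unfused red luciferase, in 0.5% FBS medium; compounds up to 46 uM, 4 h at 37C. Green/red luminescence ratio, filter-overlap corrected, fitted to concentration-response curves.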
A general note: Quantitative high-throughput screening tests each substance at several concentrations.

Setting [1] is: measured here: CBR red luminescence, cell number.
Setting [2] is: measured here: IkBa-CBG green luminescence.

With `Cc1ccc(C(=O)Cc2nnc(C)s2)cc1`, under setting [1], the AC50 (in general, the concentration giving half of the maximal activity seen) is 18.4 µM [falling, single point].

`Fc1cc(F)c(C2SCCN2C(=S)Nc2cccc(C(F)(F)F)c2)c(F)c1` (stereo not given): the half-maximal activity concentration (AC50) under setting [1] was 0.178 µM [falling, full curve, poor fit].

Consider `Cc1ccsc1C(=O)N/N=C/C=C/c1ccccc1[N+](=O)[O-]`, for which the AC50 under setting [1] was 10.3 µM [falling, partial curve].

Regarding `COc1ccc(C(=O)CN2CCN(S(=O)(=O)c3ccc(C(C)C)cc3)CC2)cc1`, the AC50 under setting [1] is 11.2 µM [falling, partial curve, poor fit].

As for `COC(=O)c1ccc2c(=O)n(Cc3ccc(C(=O)NCCCN4CCC(C)CC4)cc3)c(=S)[nH]c2c1`, the AC50 under setting [1] is 8.91 µM [falling, partial curve].

As for `CC(=O)N(Cc1cc(=O)[nH]c2ccccc12)c1ccc(C)cc1C`, the AC50 under setting [1] is 3.55 µM [rising, partial curve].

Take `CCn1c(NCCc2ccc(OC)c(OC)c2)nc2c1c(=O)n(C)c(=O)n2C`: the AC50 under setting [1] is 2.31 µM [falling, partial curve, poor fit].

Consider `CC(C)(C)[C@H]1COC(=O)[C@H](NC(=O)OCC2c3ccccc3-c3ccccc32)C/C=C\C[C@@H](CC(=O)N(CCO)Cc2ccccc2)C(=O)N1`, for which, under setting [1], the AC50 was 16.4 µM [falling, partial curve].

Consider `COc1cc(/C=C(/C#N)C(=O)Nc2ccc(C)cc2)ccc1Oc1nc(Cl)ncc1F`, for which the AC50 under setting [1] is 1.46 µM [falling, full curve, poor fit].

For `CC(C)[C@@H]1CC[C@@H](C)c2c(-c3ccccc3)n[nH]c21`, the AC50 under setting [1] was 35.5 µM [rising, single point].

Regarding `COc1ccccc1C(=O)Nc1ccc(S(=O)(=O)N2CCCC2)cc1`, under setting [1], the AC50 was 14.6 µM [rising, single point].

Consider `Cc1cccc(Cn2c(=O)n(-c3ccc(CC(=O)NCc4ccco4)cc3)c(=O)c3sccc32)c1`, for which the AC50 under setting [2] is 1.12 µM [falling, partial curve, poor fit].

For the compound `O=C(COc1ncnc2sccc12)N1CCN(C(=O)c2ccco2)CC1`, under setting [1], the half-maximal activity concentration (AC50) was 0.0891 µM [rising, full curve, poor fit].

Take `CCOc1cc(N2CCOCC2)c(OCC)cc1NC(=O)CN1C(=O)NC2(CCCCC2)C1=O`: the AC50 is 13 µM [rising, partial curve, poor fit] under setting [1] and 16.4 µM [falling, single point] under setting [2].

Consider `Cc1cc(N)n(-c2cc(C)c3ccccc3n2)n1`, for which, under setting [1], the AC50 is 10 µM [falling, partial curve, poor fit].

As to `Cn1c2ccccc2c2c(C(=O)N3CCN(c4ccccc4)CC3)cn(C3CCCC3)c(=O)c21`, the AC50 under setting [1] is 10.3 µM [falling, partial curve, poor fit].

Turning to `CC(C)(C)n1cnc2cc(NC(=O)c3ccco3)ccc21`, the AC50 under setting [1] was 12.6 µM [falling, single point].

For the compound `CC(C)c1nccn1S(=O)(=O)c1cc(Cl)ccc1Cl`, the AC50 under setting [1] is 32.6 µM [falling, single point].

As for `COc1ccc(Nc2nnc(SCC(=O)Nc3cc(C)on3)s2)cc1`, the AC50 under setting [1] is 10.3 µM [rising, single point].

Regarding `CCCc1ccc(-c2csc(NC(=O)C3=COCCO3)n2)cc1`, the AC50 under setting [1] is 0.92 µM [rising, full curve, poor fit].

Take `COc1cccc(NC(=O)CCc2ccccc2)c1`: under setting [1], the AC50 was 11.6 µM [falling, partial curve, poor fit].

In the case of `O=C(Nc1ccc2oc(=O)ccc2c1)c1ccco1`, the AC50 under setting [1] was 17.8 µM [falling, single point].

`COc1ccc(C)cc1NC(=O)CN(Cc1nnc(-c2ccc(Cl)cc2)o1)C1CCCC1`: the AC50 under setting [1] is 4.11 µM [rising, single point].

As to `COc1ccc(Cl)cc1S(=O)(=O)NC(C)C(=O)NCc1ccccn1` (stereo not given), under setting [1], the AC50 was 0.708 µM [rising, full curve, poor fit].

Take `O=C(CSc1ncccn1)NC(=O)Nc1ccc2c(c1)OCCO2`: under setting [1], the AC50 is 20 µM [falling, single point].

Regarding `Cc1ccc(C(=O)NCCN2C3=NC[C@H](C)N3C[C@H]2Cc2ccc(O)cc2)cc1Br`, the AC50 under setting [1] was 35.5 µM [falling, single point].

As for `C#CCOCCOCCOCCNc1nc(N2CCN(C(=O)CCCCCCCCCCNC(=O)[C@H](CCCCN)n3cc(C[C@@H](C)CC)nn3)CC2)nc(N2CCN(C(=O)CCCCCCCCCCNC(=O)[C@@H]([C@H](C)O)n3cc(C)nn3)CC2)n1`, under setting [1], the AC50 was 29.1 µM [rising, single point].

Turning to `Oc1ccc2ccccc2c1C=Nc1ccc(N2CCOCC2)cc1`, under setting [1], the AC50 is 0.651 µM [falling, full curve, poor fit].

For the compound `COc1cc(/C=N/NC(=O)[C@H](Cc2c[nH]c3ccccc23)NC(=O)OCC(C)C)cc([N+](=O)[O-])c1O`, the AC50 was 23.1 µM [rising, single point] under setting [1] and 18.4 µM [falling, single point] under setting [2].

`Cc1cc(C)cc(N(CC(=O)N2CC=C(c3ccccc3)CC2)S(=O)(=O)c2c(C)noc2C)c1`: the AC50 under setting [1] is 9.2 µM [falling, partial curve].

For `CN(C(=S)NC(=O)c1ccc(Cl)cc1)C1CCCCC1`, the AC50 under setting [1] is 25.1 µM [falling, single point].

In the case of `CN(C)c1ccc(/C=N\NC(=O)c2cccc3cc[nH]c23)cc1`, under setting [1], the AC50 was 28.2 µM [falling, partial curve, poor fit].

As to `O=C(COC(=O)c1ccc(O)cc1O)Nc1ccc2ccccc2c1`, the AC50 under setting [1] was 16.4 µM [falling, partial curve, poor fit].

With `COc1cccc(N2CCN(C(=O)c3ccc4ccccc4c3)CC2)c1`, the AC50 under setting [1] was 20.6 µM [falling, single point].

Take `Cc1cccc(C(=O)OCC(=O)c2ccc3c(c2)OCCO3)c1O`: the AC50 under setting [1] was 1.16 µM [rising, single point].

For the compound `Cc1c(C(=O)O)c2cc(O)ccc2n1-c1ccccc1`, the AC50 under setting [1] was 1.46 µM [rising, partial curve, poor fit].

On to `Cc1nc2ccc(NC(=O)C3CCCCC3)cc2s1`, for which, under setting [1], the AC50 was 14.6 µM [falling, single point].

In the case of `Cc1ccc(COc2cccc3c2CCN(Cc2ccc(F)cc2)C3=O)cc1`, the AC50 under setting [1] was 23.1 µM [falling, single point].
